Laboratory results reported in patent US20260167714A1.
Positions count from the first letter of the chain named. No constants are given. Whether binding was seen depends on the method and setting. Some binding calls cover weakened binding; strength is not graded here.

Sequences of proteins named here, by UniProt entry; tags and fusion partners are left off. A change or cut given only in a name is not applied to a line headed by its entry. Residues count along the entry.
UniProt Q8N423, residues 22-597: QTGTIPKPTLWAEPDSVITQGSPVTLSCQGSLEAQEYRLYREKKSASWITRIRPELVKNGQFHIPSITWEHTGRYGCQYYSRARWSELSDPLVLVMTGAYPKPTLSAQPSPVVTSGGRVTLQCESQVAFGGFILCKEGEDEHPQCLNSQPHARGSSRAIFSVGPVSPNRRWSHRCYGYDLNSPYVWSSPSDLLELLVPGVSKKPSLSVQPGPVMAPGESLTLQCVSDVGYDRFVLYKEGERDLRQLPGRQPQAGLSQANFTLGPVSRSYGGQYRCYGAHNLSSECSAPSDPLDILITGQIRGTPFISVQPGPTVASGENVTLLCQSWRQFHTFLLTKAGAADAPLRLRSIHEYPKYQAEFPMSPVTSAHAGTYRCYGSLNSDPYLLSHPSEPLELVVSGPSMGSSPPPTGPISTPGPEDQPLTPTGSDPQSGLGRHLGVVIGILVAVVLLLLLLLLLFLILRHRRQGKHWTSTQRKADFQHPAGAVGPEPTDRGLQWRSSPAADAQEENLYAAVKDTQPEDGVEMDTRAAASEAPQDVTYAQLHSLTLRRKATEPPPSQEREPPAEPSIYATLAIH
UniProt Q8N6C8: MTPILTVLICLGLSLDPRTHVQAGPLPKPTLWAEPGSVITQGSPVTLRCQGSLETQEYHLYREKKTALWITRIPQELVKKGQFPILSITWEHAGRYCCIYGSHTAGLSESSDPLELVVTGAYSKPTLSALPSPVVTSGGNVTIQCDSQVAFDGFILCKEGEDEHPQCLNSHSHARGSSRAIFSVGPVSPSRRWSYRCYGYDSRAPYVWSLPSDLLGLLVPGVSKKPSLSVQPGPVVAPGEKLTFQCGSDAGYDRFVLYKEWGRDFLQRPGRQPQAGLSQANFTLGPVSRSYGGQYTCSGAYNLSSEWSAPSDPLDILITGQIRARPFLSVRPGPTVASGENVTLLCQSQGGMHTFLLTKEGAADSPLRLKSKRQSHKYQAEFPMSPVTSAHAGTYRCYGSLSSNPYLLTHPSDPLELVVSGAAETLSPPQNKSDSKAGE

Assays:
[1] = target: human ILT4 expressed on cells (human) (UniProt Q8N423); assay: flow cytometry blocking assay: CHO-S/ILT4 cells preincubated with antibody, then PE-HLA-G tetramer; relative blocking activity (%)
[2] = target: human ILT4 expressed on cells (human) (UniProt Q8N423); assay: flow cytometry, AF647-labelled mAb 0-10 µg/ml on ILT4-CHO cells
[3] = target: human ILT4 expressed on cells (human) (UniProt Q8N423); assay: flow cytometry, direct binding of AF647-labelled antibody (0-10 µg/ml) to ILT4-CHO cells
[4] = target: human ILT4 expressed on cells (human) (UniProt Q8N423); assay: flow cytometry blocking assay: antibody titrated (0-15 µg/mL) on ILT4-CHO cells, blocked ligand PE-HLA-G tetramer; HLA-G binding (%)
[5] = target: human ILT4 expressed on cells (human) (UniProt Q8N423); assay: flow cytometry competition: unlabelled mAb (0-15 µg/mL) on ILT4-CHO cells, wash, then stained with the competitor AF647-Hz45.01-LALA
[6] = target: human ILT4 expressed on cells (human) (UniProt Q8N423); assay: flow cytometry competition: unlabelled mAb (0-15 µg/mL) on ILT4-CHO cells, wash, then stained with the competitor AF647-Hz156.03-LALA
[7] = target: human ILT4 expressed on cells (human) (UniProt Q8N423); assay: flow cytometry blocking assay: antibody titrated (0-15 µg/mL) on ILT4-CHO cells, blocked ligand PE-HLA-A tetramer at 5 ug/ml; HLA-A binding (%)
[8] = target: human ILT4 expressed on cells (human) (UniProt Q8N423); assay: flow cytometry competition: unlabelled mAb (0-15 µg/mL) on ILT4-CHO cells, wash, then stained with the competitor AF647-Hz45.01-LALA [panel Hz45.01-LALA]
[9] = target: human ILT4 expressed on cells (human) (UniProt Q8N423); assay: flow cytometry competition: unlabelled mAb (0-15 µg/mL) on ILT4-CHO cells, wash, then stained with the competitor AF647-Hz156.03-LALA [panel Hz45.01-LALA]
[10] = target: human ILT4 expressed on cells (human) (UniProt Q8N423); assay: flow cytometry competition: unlabelled mAb (0-15 µg/mL) on ILT4-CHO cells, wash, then stained with the competitor AF647-Hz45.01-LALA [panel Hz156.03-LALA]
[11] = target: human ILT4 expressed on cells (human) (UniProt Q8N423); assay: flow cytometry competition: unlabelled mAb (0-15 µg/mL) on ILT4-CHO cells, wash, then stained with the competitor AF647-Hz156.03-LALA [panel Hz156.03-LALA]
LILRA3 (human) = LILRA3 (human) (UniProt Q8N6C8); assay: SPR, Biacore 8K cross-reactivity study

B1: L180S4 (antibody, IgG1, V domains shown)
VH: EVHLQQSGPELVKPGASVKISCKASGYSFIGYFMNWMKQSHGKSLEWIGRINPYNGDIFYNQKFKGKATLTVDKSSTTAHMDLLSLTSEDFAVYYCARGITVAAGSFDVWGTGTTVTVSS
VL: DIVLTQSPASLAVSLGQRATISCRASESVDNYGNTFMHWYQQKPGQPPKLLIYRASNLESGIPARFSGSGSKTDFTLTINPVEADDVATYYCQQSSDHPLTFGAGTKLELS
- binding [1]: binds

B2: Hz45.01-LALA (antibody, human IgG1, kappa, L234A L235A, V domains shown)
VH: QVQLVQSGAEVKKPGASVKVSCKASGYTFTDYYMNWVRQAPGQRLEWIGDINPNNGGTSYNQKFKGRATITVDTSASTAYMELSSLRSEDTAVYYCARGGAELTGTYWYFDVWGQGTTVTVSS
VL: DIQMTQSPSSLSASVGDRVTITCRASENIYSNLAWYQQKPGKAPKVLVYGATNLADGVPSRFSGSGSGTEYTLTISSLQPEDFATYYCQHFWDSPFTFGGGTKVEIKR
- binding [2]: binds
- binding [3]: binds
- binding [4]: binds
- binding [5]: binds
- binding [6]: binds
- binding [7]: binds
- binding [8]: binds
- binding [9]: binds

B3: Hz156.03-LALA (antibody, human IgG1, kappa, L234A L235A, V domains shown)
VH: QVQLVQSGAEVKKPGSSVKVSCKASGYTFTDYYMNWVRQAPGQGLEWIARIYPGVYRTHYNEKFKDRVTLTADKSTSTAYMELSSLRSEDTAVYYCARSGYYGGTYEEDAMDYWGQGTTVTVSS
VL: B2 VL with V46L, G50A, N53S, E70D, H90N, S94T, F96Y, G100Q
- binding [2]: binds
- binding [3]: binds
- binding [4]: binds
- binding [7]: binds
- binding [10]: binds
- binding [11]: binds

B4: L41S5 (antibody, IgG2a, V domains shown)
VH: QVQLQQSGAELVKPGASVKISCKASGYAFSSYWMNWVKQRPGKGLEWIGQIYPGHGDTNYNGKFKGKATLTADKSSSTAYMQLSSLTSEDSAVYFCAKEGSELGRLFAYWGQGTLVTVSA
VL: QIVLTQSPALMSASPGEKVTMTCSASSSVSFMYWYQQKPRSSPKPWIYLTSNLASGVPARFSGSGSGTSYSLTISSMEAEDAATYYCQQWSSNPPTFGGGTKLEIK
- binding [1]: binds

B5: L45S4 (antibody, IgG2a, V domains shown)
VH: EVQLQQSGPELVKPGASVKISCKASGYTFTDYYMNWVKQSHGKSLEWIGDINPNNGGTSYNQKFKGKATLTVDKSSSTAYMELRSLTSEDSAVYYCARGGAELTGTYWYFDVWGTGTTVTVSS
VL: DIQMTQSPASLSISVGETVTITCRASENIYSNLAWYQQKQGKSPQVLVYGATNLADGVPSRFSGSGSGTQYSLKIKSLQSEDFGSYYCQHFWDSPFTFGSGTKLEIK
- binding [1]: binds

B6: L77S2 (antibody, IgG1, V domains shown)
VH: DVQLQQSGPELVKPGNSVKISCKAAGYSFTGYSVNWVKERHGKSLEWIGRINPYNGDIFNNQKFKGKATLTVDKSSSTAHMELRSLTSEDSAVYYCARGTTVGGAWFAYWGQGTLVTVSA
VL: VIVLTQSPASLAVSLGQRAAISCRASESVDSYGYSFLHWYQQKPGQPPKLLIYLASNLESGIPARFSGSGSGTDFTLTINPVEADDVATYYCQQSNEDLMYTFGGGTKLEIK
- binding [1]: binds

B7: L156S3 (antibody, IgG2a, V domains shown)
VH: QVQLKQSGAELVRPGASVKLSCRASGYTFTDYYMNWVKQRPGQGLEWIARIYPGVYRTHYNEKFKDKATLTAEKSSSTAYMELSSLTSEDSAVYFCARSGYYGGTYEEDAMDYWGQGTSVTVSS
VL: DIQMTQSPASLSVSVGETVTITCRASENIYSNLAWYQQKQGKSPQLLVYAATSLADGVPSRFRGSGSGTQYSLKISSLQSEDFGNYYCQNFWDTPYTFGGGTKLEIK
- binding [1]: binds

B8: Hz180-LALA (antibody, human IgG1, kappa, L234A L235A, V domains shown)
VH: QVQLVQSGAEVKKPGSSVKVSCKASGYSFIGYFMNWMRQAPGQGLEWIGRINPYNGDIFYNQKFKGRVTITVDKSTSTAYMELSSLRSEDTAVYYCARGITVAAGSFDVWGQGTTVTVSS
VL: DIVMTQSPDSLAVSLGERATINCRASESVDNYGNTFMHWYQQKPGQPPKLLIYRASNLESGIPDRFSGSGSGTDFTLTISSLQAEDVAVYYCQQSSDHPLTFGGGTKVEIKR
- binding (LILRA3 (human)): binds
